# The list does not hold the whole screen: it is rich in T/C values a quarter to a half above the control, in often repeated tests (any T/C) and in doses without a T/C. Other doses and runs of a compound stand elsewhere. T/C: endpoint of the treated group in % of that of the vehicle group. Some doses have a count of surviving animals in place of a T/C: the source holds a T/C of zero for them, seemingly a mark for toxic or unscored doses. Some survivor counts are full or nearly so, which does not show that the dose was tolerated: survival well below the control is almost never listed, so the zero probably covers shortened survival too. Survivors were counted at the toxicity check, usually on the fifth day, unless a day is given; later deaths do not show. Schedule codes are those of the source, read here as Q, the interval in days (D) or hours (H), X, the number of doses. Some entries were tested several times; their values stand side by side, smallest first. Where survival is the endpoint, this PubChem deposit counts one and a half times the control or more as active, and values a quarter to a half above the control carry no call in these data; other NCI protocols may use other cut-offs.
# Tested on: P388 leukemia ip, CD2F1 mice, survival T/C
# Assay: NCI In Vivo Anticancer Drug Screen. Data for tumor model P388 Leukemia (intraperitoneal) in CD2F1 (CDF1) mice
# Details: T/C endpoint: median survival time, higher T/C = longer survival
# [1] = dose: 240.0 mg/kg/injection, schedule: Q01DX005 (ip), vehicle: Klucel (hydroxypropylcellulose) (HPC)
compound,measurement,setting,value
O=c1[nH]c(=O)c2c(Br)[nH]nc2[nH]1,survivor count,"dose: 400.0 mg/kg/injection, schedule: Q01DX001 (ip), vehicle: Klucel (hydroxypropylcellulose) (HPC)",2 of 6
COc1cc2c(c3c1C(=O)c1c(cc4c(c1O)C(OC1OC(C)C(OC)C(C)(OC)C1OC)CC(C)(O)C4)C3=O)OC1OC2(C)C(O)C(N(C)C)C1O (stereo not drawn),T/C,"dose: 1.25 mg/kg/injection, schedule: Q01DX009 (ip), vehicle: other",132 % of control
same,T/C,"dose: 2.5 mg/kg/injection, schedule: Q01DX009 (ip), vehicle: other",135 % of control
O=C1C=CC(=O)N1c1ccccc1[N+](=O)[O-],survivor count,"dose: 3.0 mg/kg/injection, schedule: Q01DX009 (ip), vehicle: saline with Tween-80",4 of 6
same,survivor count,"dose: 12.0 mg/kg/injection, schedule: Q01DX009 (ip), vehicle: saline with Tween-80",3 of 6
CCOC(=O)CCC(NC(=O)c1ccc(NCc2cnc3nc(N)nc(N)c3c2)cc1)C(=O)OCC (stereo not drawn),survivor count,"dose: 2.0 mg/kg/injection, schedule: Q01DX005 (ip), vehicle: saline with Tween-80",5 of 5 and 6 of 6
same,survivor count,"dose: 4.0 mg/kg/injection, schedule: Q01DX005 (ip), vehicle: saline with Tween-80",5 of 5
same,survivor count,"dose: 8.0 mg/kg/injection, schedule: Q01DX005 (ip), vehicle: saline with Tween-80",5 of 5
same,survivor count,"dose: 16.0 mg/kg/injection, schedule: Q01DX005 (ip), vehicle: saline with Tween-80",5 of 5
same,T/C,"dose: 250.0 micrograms/kg/injection, schedule: Q01DX005 (ip), vehicle: saline with Tween-80",127 % of control
same,T/C,"dose: 500.0 micrograms/kg/injection, schedule: Q01DX005 (ip), vehicle: saline with Tween-80",139 % of control
same,survivor count,"dose: 2000.0 micrograms/kg/injection, schedule: Q01DX005 (ip), vehicle: saline with Tween-80",10 of 10
CCOC(=O)COc1cc2c(cc1Cc1ccc(OC)cc1)OCO2,survivor count,"dose: 200.0 mg/kg/injection, schedule: Q01DX005 (ip), vehicle: saline with Tween-80",6 of 6
CC(C)=CCC(OC(=O)C=C(C)C)c1cc(O)c2c(O)ccc(O)c2c1O.[Mn] (stereo not drawn),survivor count,"dose: 200.0 mg/kg/injection, schedule: Q01DX001 (ip), vehicle: saline with Tween-80",2 of 6
same,survivor count,"dose: 400.0 mg/kg/injection, schedule: Q01DX001 (ip), vehicle: saline with Tween-80",0 of 6
COc1cc(C2c3cc4c(cc3CC3COC(=O)N32)OCO4)cc(OC)c1OC (stereo not drawn),survivor count,"dose: 60.0 mg/kg/injection, schedule: Q01DX005 (ip), vehicle: Klucel (hydroxypropylcellulose) (HPC)",2 of 6
same,survivor count,"dose: 120.0 mg/kg/injection, schedule: Q01DX005 (ip), vehicle: Klucel (hydroxypropylcellulose) (HPC)",1 of 6
same,survivor count,[1],0 of 6
Cc1ccc(C)c(C2(c3cc(C)ccc3C)CCCCCC2=O)c1,survivor count,"dose: 50.0 mg/kg/injection, schedule: Q01DX005 (ip), vehicle: Klucel (hydroxypropylcellulose) (HPC)",6 of 6
same,survivor count,"dose: 200.0 mg/kg/injection, schedule: Q01DX005 (ip), vehicle: Klucel (hydroxypropylcellulose) (HPC)",6 of 6
COc1ccc2c(c1)C13CCCCC1C(C2)N(C)CC3 (stereo not drawn),survivor count,"dose: 100.0 mg/kg/injection, schedule: Q01DX005 (ip), vehicle: saline",3 of 6
same,survivor count,"dose: 200.0 mg/kg/injection, schedule: Q01DX005 (ip), vehicle: saline",0 of 6
CCCN1CN2CCOC2C(C)(C)C1 (stereo not drawn),T/C,"dose: 160.0 mg/kg/injection, schedule: Q01DX009 (ip), vehicle: saline with Tween-80",128 % of control
CC1CC[N-]C(C)C1.CN(C)C=O.[Cl][Pt][Cl] (stereo not drawn),T/C,"dose: 6.25 mg/kg/injection, schedule: Q01DX009 (ip), vehicle: saline with Tween-80",140 % of control
same,T/C,"dose: 12.5 mg/kg/injection, schedule: Q01DX009 (ip), vehicle: saline with Tween-80",130 and 136 % of control
same,survivor count,"dose: 25.0 mg/kg/injection, schedule: Q01DX009 (ip), vehicle: saline with Tween-80",5 of 6 and 6 of 6
same,survivor count,"dose: 50.0 mg/kg/injection, schedule: Q01DX009 (ip), vehicle: saline with Tween-80",0 of 6 and 3 of 6
same,survivor count,"dose: 100.0 mg/kg/injection, schedule: Q01DX009 (ip), vehicle: saline with Tween-80",0 of 6
same,survivor count,"dose: 200.0 mg/kg/injection, schedule: Q01DX009 (ip), vehicle: saline with Tween-80",0 of 6
O=C(O)c1c(Cl)n(Cc2cc(Cl)ccc2Cl)c2ccccc12,survivor count,[1],5 of 6
CC[n+]1cccc(C(=O)c2ccccc2)c1,survivor count,"dose: 60.0 mg/kg/injection, schedule: Q01DX005 (ip), vehicle: saline",0 of 6
same,survivor count,"dose: 120.0 mg/kg/injection, schedule: Q01DX005 (ip), vehicle: saline",0 of 6
same,survivor count,"dose: 240.0 mg/kg/injection, schedule: Q01DX005 (ip), vehicle: saline",0 of 6
